Source: the supplement of paper PMC10331698
± gives the standard deviation of the averaged measurements. Most values lie at the level of the controls, where differences are scatter.

Key:
Assay in all cases: level (log10 ratio to DMSO vehicle control); higher = higher biomarker level / cell amount than vehicle control
[1] = compound: C=CC(=O)OCC(F)(F)C(F)(F)C(F)(F)C(F)(F)C(F)(F)C(F)(F)C(F)(F)F [1H,1H-Perfluorooctyl acrylate]; conditions: 2200 nM; in DMSO
Protocol: (§1)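 BioMAP Diversity Plus panel of 12 human primary cell co-culture systems (3C, 4H, LPS, SAg, BT, BF4T, BE3C, CASM3C, HDF3CGF, KF3CT, MyoF, Mphg). Compounds were added 1 h before stimulation and left for 24 h (MyoF 48 h; BT 72 h for soluble read-outs or 6 d for IgG). Biomarkers were read by ELISA, cytotoxicity by SRB, PBMC viability and proliferation by Alamar Blue. Each well value was divided by the mean of 8 DMSO control wells on the same plate and log10 transformed; duplicate blinded samples were tested at 4 concentrations.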

Pentafluoropropionamide = compound: NC(=O)C(F)(F)C(F)(F)F [Pentafluoropropionamide]; conditions: 2200 nM; in DMSO
Protocol: as §1

[2] = compound: C=C(C)C(=O)OCC(F)(F)C(F)(F)C(F)(F)C(F)(F)C(F)(F)C(F)(F)C(F)(F)F; conditions: in DMSO
Protocol: as §1

[3] = compound: O=S(=O)(O)C(F)(F)C(F)(F)C(F)(F)C(F)(F)C(F)(F)C(F)(F)C(F)(F)C(F)(F)F [Perfluorooctanesulfonic acid]; conditions: 2200 nM; in DMSO
Protocol: as §1

[4] = compound: CO[Si](C)(CCC(F)(F)C(F)(F)C(F)(F)C(F)(F)C(F)(F)C(F)(F)F)OC [Dimethoxymethyl((perfluorohexyl)ethyl)silane]; conditions: in DMSO
Protocol: as §1

[5] = compound: O=S(=O)(O)C(F)(F)C(F)(F)C(F)(F)C(F)(F)C(F)(F)C(F)(F)C(F)(F)C(F)(F)F [Potassium perfluorooctanesulfonate]; conditions: 2200 nM; in DMSO
Protocol: as §1

[6] = compound: O=P(O)(O)CCC(F)(F)C(F)(F)C(F)(F)C(F)(F)C(F)(F)C(F)(F)F [2-(Perfluorohexyl)ethylphosphonic acid]; conditions: 2200 nM; in DMSO
Protocol: as §1

[7] = compound: FC(F)(F)C(F)(F)C(F)(F)CC1CO1 [1H,1H-Heptafluorobutyl epoxide]; conditions: 2200 nM; in DMSO
Protocol: as §1

[8] = compound: O=C(O)C(F)(F)C(F)(F)C(F)F [4H-Perfluorobutanoic acid]; conditions: in DMSO
Protocol: as §1

[9] = compound: OCC(F)(F)C(F)(F)C(F)(F)C(F)(F)C(F)(F)C(F)F [1H,1H,7H-Dodecafluoro-1-heptanol]; conditions: 2200 nM; in DMSO
Protocol: as §1

[10] = compound: NS(=O)(=O)C(F)(F)C(F)(F)C(F)(F)C(F)(F)C(F)(F)C(F)(F)C(F)(F)C(F)(F)F [Perfluorooctanesulfonamide]; conditions: in DMSO
Protocol: as §1

[11] = compound: C=CC(F)(F)C(F)(F)C(F)(F)C(F)(F)C(F)(F)C(F)(F)C(F)(F)C(F)(F)C=C [1,8-Divinylperfluorooctane]; conditions: in DMSO
Protocol: as §1

[12] = compound: COC(=O)C(F)(F)C(F)(F)OC(F)(C(F)(F)F)C(F)(F)OC(F)=C(F)F [Methyl perfluoro(3-(1-ethenyloxypropan-2-yloxy)propanoate)]; conditions: in DMSO
Protocol: as §1

Heptafluorobutyl iodide = compound: FC(F)(F)C(F)(F)C(F)(F)CI [Heptafluorobutyl iodide]; conditions: 2200 nM; in DMSO
Protocol: as §1

[13] = compound: O=S(=O)(OCC(F)(F)F)C(F)(F)C(F)(F)C(F)(F)C(F)(F)F [2,2,2-Trifluoroethyl perfluorobutanesulfonate]; conditions: 2200 nM; in DMSO
Protocol: as §1

[14] = compound: NC(=O)C(F)(F)C(F)(F)C(F)(F)C(F)F; conditions: in DMSO
Protocol: as §1

[15] = compound: O=S(=O)(F)C(F)(F)C(F)(F)C(F)(F)C(F)(F)C(F)(F)C(F)(F)C(F)(F)C(F)(F)F [Perfluorooctanesulfonyl fluoride]; conditions: 2200 nM; in DMSO
Protocol: as §1

[16] = compound: OCCCCC(F)(F)C(F)(F)C(F)(F)C(F)(F)F [4:4 Fluorotelomer alcohol]; conditions: 2200 nM; in DMSO
Protocol: as §1

| Test System | level (log10) [1] | level (log10) (Pentafluoropropionamide) | level (log10) ([2]; 740 nM) | level (log10) ([2]; 2200 nM) | level (log10) [3] | level (log10) ([4]; 740 nM) | level (log10) ([4]; 2200 nM) | level (log10) [5] | level (log10) [6] | level (log10) [7] | level (log10) ([8]; 2200 nM) | level (log10) ([8]; 6700 nM) | level (log10) ([8]; 20000 nM) | level (log10) ([8]; 60000 nM) | level (log10) [9] | level (log10) ([10]; 2200 nM) | level (log10) ([10]; 6700 nM) | level (log10) ([10]; 20000 nM) | level (log10) ([11]; 740 nM) | level (log10) ([11]; 2200 nM) | level (log10) ([12]; 740 nM) | level (log10) ([12]; 2200 nM) | level (log10) (Heptafluorobutyl iodide) | level (log10) [13] | level (log10) ([14]; 2200 nM) | level (log10) ([14]; 6700 nM) | level (log10) ([14]; 20000 nM) | level (log10) ([14]; 60000 nM) | level (log10) [15] | level (log10) [16] |
| --- | --- | --- | --- | --- | --- | --- | --- | --- | --- | --- | --- | --- | --- | --- | --- | --- | --- | --- | --- | --- | --- | --- | --- | --- | --- | --- | --- | --- | --- | --- |
| BF4T:MMP-9 | -0.012 ± 0.016 | 0.0175 ± 0.06 | 0.0285 ± 0.037 | -0.016 ± 0.0085 | 0.0095 ± 0.029 | 0.0065 ± 0.057 | 0.0005 ± 0.026 | 0.026 ± 0.037 | -0.014 ± 0.034 | -0.011 ± 0.0099 | -0.0285 ± 0.026 | -0.018 ± 0.028 | -0.0245 ± 0.036 | -0.008 ± 0.038 | 0.008 ± 0.024 | -0.0015 ± 0.043 | -0.006 ± 0.025 | -0.113 ± 0.018 | 0.0135 ± 0.08 | 0.002 ± 0.075 | -0.007 ± 0.025 | -0.03 ± 0.0071 | 0.013 ± 0.054 | -0.0105 ± 0.0092 | 0.0135 ± 0.063 | 0.013 ± 0.051 | -0.006 ± 0.055 | -0.001 ± 0.047 | 0.0005 ± 0.033 | 0.0195 ± 0.028 |
| BF4T:PAI-I | 0.0135 ± 0.015 | 0.003 ± 0.0085 | 0.0105 ± 0.053 | 0.013 ± 0.037 | 0.007 ± 0.027 | 0.002 ± 0.04 | 0.002 ± 0.017 | 0.009 ± 0.028 | 0.01 ± 0.024 | -0.0075 ± 0.0092 | 0.0115 ± 0.0021 | 0.0025 ± 0.013 | -0.01 ± 0.0042 | 0.0105 ± 0.035 | 0.011 ± 0.0028 | 0.007 ± 0.0014 | -0.004 ± 0.011 | -0.038 ± 0.0099 | 0.0015 ± 0.032 | -0.0005 ± 0.021 | 0.0055 ± 0.012 | -0.0075 ± 0.005 | 0.0055 ± 0.025 | -0.001 ± 0.017 | 0.001 ± 0.031 | -0.0005 ± 0.019 | -0.0095 ± 0.021 | 0.004 ± 0.0085 | -0.0015 ± 0.012 | 0.013 ± 0.02 |
| BF4T:SRB | 0.005 ± 0.0057 | -0.004 ± 0.011 | -0.0025 ± 0.005 | -0.0025 ± 0.0035 | -0.0015 ± 0.005 | -0.002 ± 0.0014 | -0.001 ± 0.0014 | -0.0025 ± 0.012 | 0 ± 0.013 | 0 ± 0.0042 | -0.0065 ± 0.0064 | 0.0005 ± 0.0021 | -0.008 ± 0.0057 | -0.006 ± 0.0042 | 0.0045 ± 0.015 | 0.0005 ± 0.0078 | -0.009 ± 0.0028 | -0.052 | -0.002 ± 0.0014 | -0.002 ± 0.0014 | 0.0155 ± 0.0092 | -0.001 ± 0.0071 | 0.013 ± 0.024 | 0.005 ± 0.016 | 0.001 ± 0.011 | -0.0075 ± 0.00071 | -0.0125 ± 0.011 | -0.0025 ± 0.0078 | 0.004 ± 0.018 | -0.0035 ± 0.0064 |
| BF4T:tPA | 0.017 ± 0.021 | -0.0005 ± 0.025 | 0.005 ± 0.058 | -0.008 | 0.0375 ± 0.074 | 0.008 ± 0.025 | 0.006 ± 0.018 | 0.0235 ± 0.088 | -0.0235 ± 0.033 | -0.006 ± 0.027 | -0.013 ± 0.017 | -0.002 ± 0.037 | 0.003 ± 0.028 | 0.0475 ± 0.022 | 0.008 ± 0.017 | 0.0145 ± 0.028 | -0.059 ± 0.013 | 0.006 ± 0.02 | 0.008 ± 0.03 | 0.0065 ± 0.012 | -0.0145 ± 0.021 | -0.014 ± 0.0085 | 0.0045 ± 0.023 | -0.0095 ± 0.012 | 0.0195 ± 0.053 | -0.0005 ± 0.021 | -0.0115 ± 0.022 | 0.0125 ± 0.005 | 0.0035 ± 0.012 | 0.027 ± 0.05 |
| BF4T:uPA | 0.0055 ± 0.012 | -0.0035 ± 0.011 | 0.0015 ± 0.028 | -0.0245 ± 0.018 | 0.014 ± 0.045 | 0.002 ± 0.038 | -0.011 ± 0.02 | 0.017 ± 0.023 | -0.0225 ± 0.036 | -0.006 ± 0.028 | -0.0105 ± 0.029 | 0.002 ± 0.016 | 0.019 ± 0.0014 | 0.0105 ± 0.0021 | 0.004 ± 0.0042 | -0.0015 ± 0.012 | 0.014 ± 0.016 | 0.005 ± 0.034 | -0.004 ± 0.025 | -0.0185 ± 0.013 | 0.014 ± 0.057 | -0.007 ± 0.0071 | 0.0015 ± 0.0021 | 0 ± 0.027 | 0.0075 ± 0.016 | -0.001 ± 0.023 | -0.0145 ± 0.015 | -0.004 ± 0.021 | 0.006 ± 0.0028 | -0.0025 ± 0.035 |
| BT:B cell Proliferation | 0.0095 ± 0.042 | 0.004 ± 0.013 | -0.0095 ± 0.011 | -0.006 ± 0.023 | 0.0235 ± 0.025 | 0.0185 ± 0.016 | -0.0025 ± 0.012 | 0.025 ± 0.0085 | 0.0285 ± 0.016 | 0.0155 ± 0.035 | 0.025 ± 0.059 | 0.016 ± 0.0099 | 0.0055 ± 0.019 | 0.0065 ± 0.036 | -0.0135 ± 0.0035 | 0.0255 ± 0.018 | 0.0205 ± 0.0064 | 0.024 ± 0.028 | 0.0125 ± 0.029 | -0.0025 ± 0.059 | 0.034 ± 0.03 | 0.0145 ± 0.029 | 0.025 ± 0.024 | -0.0025 ± 0.00071 | 0.039 ± 0.011 | 0.0115 ± 0.0092 | -0.001 | 0.0215 ± 0.0092 | -0.0065 ± 0.033 | 0.015 ± 0.013 |
| BT:PBMC Cytotoxicity | 0.019 ± 0.0028 | 0.026 ± 0.035 | 0.003 ± 0.045 | 0.006 ± 0.042 | 0.0045 ± 0.019 | -0.014 ± 0.037 | 0.0165 ± 0.0021 | -0.011 ± 0.0085 | 0.006 ± 0.031 | -0.002 ± 0.05 | -0.02 ± 0.0057 | -0.0175 ± 0.018 | -0.0075 ± 0.0035 | -0.002 ± 0.047 | -0.006 ± 0.0071 | -0.015 ± 0.037 | 0.0175 ± 0.0064 | 0.03 ± 0.0099 | 0.012 ± 0.051 | 0.0245 ± 0.016 | 0.0335 ± 0.036 | 0.0355 ± 0.03 | 0.027 ± 0.011 | 0.021 ± 0.025 | -0.0005 ± 0.035 | -0.001 ± 0.0042 | -0.0015 ± 0.0035 | 0.016 | 0.028 ± 0.045 | -0.0165 ± 0.015 |
